This test has as its target T1, Kv4.3 (KCND3/WT) (human) (UniProt Q9UK17).
T1 sequence: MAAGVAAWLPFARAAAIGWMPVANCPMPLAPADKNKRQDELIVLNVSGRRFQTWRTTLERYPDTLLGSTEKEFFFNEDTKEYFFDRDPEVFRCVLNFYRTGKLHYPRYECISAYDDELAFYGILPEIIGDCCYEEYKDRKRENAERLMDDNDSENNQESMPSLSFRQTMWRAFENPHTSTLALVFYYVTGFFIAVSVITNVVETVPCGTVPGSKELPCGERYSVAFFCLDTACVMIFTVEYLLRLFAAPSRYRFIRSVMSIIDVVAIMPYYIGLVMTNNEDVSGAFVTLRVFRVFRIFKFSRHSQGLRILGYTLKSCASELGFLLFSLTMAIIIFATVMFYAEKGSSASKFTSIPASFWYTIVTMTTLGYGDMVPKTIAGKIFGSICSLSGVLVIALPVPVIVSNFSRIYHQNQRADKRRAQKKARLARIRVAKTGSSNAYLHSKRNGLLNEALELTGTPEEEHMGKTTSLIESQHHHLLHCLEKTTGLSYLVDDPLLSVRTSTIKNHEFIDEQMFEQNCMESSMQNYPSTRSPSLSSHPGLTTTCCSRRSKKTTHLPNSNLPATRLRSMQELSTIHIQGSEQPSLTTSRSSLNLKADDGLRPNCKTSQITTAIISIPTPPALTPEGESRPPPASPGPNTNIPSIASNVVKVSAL
In words: co-IP; HEK293 co-transfected with KCND3/WT and SCN1Bβ (WT, S248R or R250T), 48 h; membrane protein lysates incubated with anti-Kv4.3 antibody overnight at 4°C, Protein G Dynabeads 1 h at room temperature, washed three times with PBS with 0.02% Tween-20; blotted with anti-Kv4.3 and anti-SCN1Bβ.

Amino acid sequences for entries named in this document (tags omitted). A change or cut given only in a name is not applied to a line headed by its entry. Chains listed by the source or under a name are the forms on record and can include a tag or linker.
SCN1Bβ/WT (Navβ1b, sodium channel beta1b subunit) (Q07699-2, form named): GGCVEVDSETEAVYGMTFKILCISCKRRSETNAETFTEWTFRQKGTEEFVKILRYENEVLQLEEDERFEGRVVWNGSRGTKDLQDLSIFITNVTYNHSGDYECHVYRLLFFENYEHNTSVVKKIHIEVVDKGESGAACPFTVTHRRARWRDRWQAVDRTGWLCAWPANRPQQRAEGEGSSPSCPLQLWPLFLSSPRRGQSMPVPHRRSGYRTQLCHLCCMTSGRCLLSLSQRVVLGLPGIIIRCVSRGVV
SCN1Bβ/S248R (Q07699-2, form named): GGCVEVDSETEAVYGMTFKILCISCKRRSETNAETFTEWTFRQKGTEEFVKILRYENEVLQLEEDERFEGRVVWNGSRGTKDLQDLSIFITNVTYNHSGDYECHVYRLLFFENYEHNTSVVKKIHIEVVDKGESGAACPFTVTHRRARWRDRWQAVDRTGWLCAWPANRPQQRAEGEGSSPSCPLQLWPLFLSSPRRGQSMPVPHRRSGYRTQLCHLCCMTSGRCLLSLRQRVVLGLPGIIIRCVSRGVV
SCN1Bβ/R250T (Q07699-2, form named): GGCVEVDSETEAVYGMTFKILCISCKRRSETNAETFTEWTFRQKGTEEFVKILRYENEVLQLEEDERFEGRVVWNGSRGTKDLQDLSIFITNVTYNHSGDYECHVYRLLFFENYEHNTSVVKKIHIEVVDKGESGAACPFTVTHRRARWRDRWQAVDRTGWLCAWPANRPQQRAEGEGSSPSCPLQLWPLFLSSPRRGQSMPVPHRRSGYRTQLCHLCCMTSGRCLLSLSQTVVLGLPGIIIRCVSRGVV

These are yes or no findings as the source states them, for the method shown. Binding seen in cells or lysates may run through a third protein. Some binding calls cover weakened binding; strength is not graded here.

As to “SCN1Bβ/WT (Navβ1b, sodium channel beta1b subunit) (from UniProt Q07699-2 19-268)”, the binding entry is “binds”.
Regarding “SCN1Bβ/S248R (from UniProt Q07699-2 19-268)”, the binding entry is reported as “binds”.
With “SCN1Bβ/R250T (from UniProt Q07699-2 19-268)”, the binding entry is “binds”.

(Values after article PMC6201368.)
